Here are results for one substance from PMC7255803.

The target in the experiment is T1, SIMR-1 (bait of the SIMR-1 immunoprecipitations) (C. elegans) (UniProt O01477).
T1 sequence: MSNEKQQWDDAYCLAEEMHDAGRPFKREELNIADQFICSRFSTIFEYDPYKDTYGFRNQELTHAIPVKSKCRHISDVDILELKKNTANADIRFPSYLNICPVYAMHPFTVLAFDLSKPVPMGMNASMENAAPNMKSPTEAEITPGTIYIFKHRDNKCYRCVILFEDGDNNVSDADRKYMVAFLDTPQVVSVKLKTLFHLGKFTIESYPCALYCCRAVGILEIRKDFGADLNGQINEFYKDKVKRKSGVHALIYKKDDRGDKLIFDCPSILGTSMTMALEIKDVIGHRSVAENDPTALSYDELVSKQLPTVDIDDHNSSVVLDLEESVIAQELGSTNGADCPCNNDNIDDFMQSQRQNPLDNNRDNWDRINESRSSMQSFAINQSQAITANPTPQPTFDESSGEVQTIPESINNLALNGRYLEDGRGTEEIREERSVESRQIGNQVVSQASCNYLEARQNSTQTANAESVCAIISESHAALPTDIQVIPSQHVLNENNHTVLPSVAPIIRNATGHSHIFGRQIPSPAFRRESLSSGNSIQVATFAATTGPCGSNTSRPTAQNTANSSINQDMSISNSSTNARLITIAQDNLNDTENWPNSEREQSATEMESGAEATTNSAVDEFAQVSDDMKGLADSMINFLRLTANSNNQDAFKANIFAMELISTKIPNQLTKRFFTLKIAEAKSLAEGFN
Description: co-IP; SIMR-1 immunoprecipitations; no methods told, how RSD-2 was identified is not stated.

Results are given in words; binding and its absence hold for the method and conditions named. Binding seen in cells or lysates may run through a third protein. A result given as binding can be weak or reduced; the word gives no strength.

On to RSD-2, for which the binding entry is “binds”.
